PubChem BioAssay AID1053208 | Peter MacCallum Cancer Centre, 2014
Assay: 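Genes whose silencing cuts survival of bone tumour cells only with doxorubicin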 (primary screen). Cell system: mouse osteosarcoma cells, early-passage culture from an engineered mouse model of fibroblastic bone tumour. Reagent: siRNA pool against mouse genes, 40 nM. Time to read-out: about 120 h (48 h before drug, then 72 h with drug). Treatment: doxorubicin 100 nM for 72 h, roughly 30-40% inhibitory dose. Measurement: 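Luminescent ATP signal taken as viability with or without 100 nM doxorubicin for 72 h; mean of two wells set against non-targeting siRNA and turned into robust z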. Scale: viability z-score with doxorubicin and doxorubicin viability vs non-targeting: higher = more viable cells under doxorubicin; viability z-score without drug: higher = more viable cells with knock-down alone; z-score of drug to no-drug ratio: higher = less drug sensitisation by knock-down. Call rule: 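a pool counts as active when its viability z-score with doxorubicin is -2 or below and its z-score without drug lies between -2 and 2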.
Here is one part, drawn at random, of about 17,000 reagents. In the full data, 788 (4.7%) are marked active. 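Calls rest on z-score classes alone; an extra cut-off of viability at most 70% of control was not applied to them.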 A number with no mark means an inactive call. Reagent sequences are not shown.

no.	target	PubChem SID	combined z-score class	viability z-score with doxorubicin	viability z-score without drug	z-score of drug to no-drug ratio	doxorubicin viability vs non-targeting
1	Wdr25	SID152334256	no change with or without drug	0.45	0.51	0.22	0.98
2	Spg7	SID152310234	low cell count with doxorubicin only (active)	-2.7	-0.17	-2.7	0.7
3	Spg7	SID152318565	no change with or without drug	1.01	1.18	0.34	1.03
4	Stx1b	SID152276196	no change with or without drug	-0.45	0.17	-0.45	0.9
5	Stx1b	SID152280954	no change with or without drug	0.34	0.51	0.11	0.97
6	Exoc7	SID152263412	no change with or without drug	-0.22	0.51	-0.45	0.92
7	S100a10	SID152323770	no change with or without drug	0.67	1.35	-0.11	1
8	Smim8	SID152280874	high cell count without drug only	0.67	2.19	-0.56	1
9	Or2a20	SID152264205	no change with or without drug	-1.57	-1.52	-0.56	0.8
10	Hsd17b10	SID152303391	no change with or without drug	-0.34	-1.18	0.56	0.91
11	Azgp1	SID152308203	no change with or without drug	-1.35	0.51	-1.57	0.82
12	Prl2c4	SID152339036	no change with or without drug	1.35	-0.17	1.69	1.06
13	Pnma1	SID152334630	no change with or without drug	0.9	0.17	0.9	1.02
14	Blnk	SID152277593	no change with or without drug	0.9	0.84	0.45	1.02
15	Umps	SID152262051	no change with or without drug	1.24	1.01	0.67	1.05
16	Cdca8	SID152308656	low cell count without drug only	-1.46	-2.36	0.22	0.81
17	Bag4	SID152263203	no change with or without drug	0.45	0.51	0.22	0.98
18	Cipc	SID152302671	no change with or without drug	-1.57	-0.84	-1.01	0.8
19	Angptl3	SID152304057	no change with or without drug	-1.01	-0.84	-0.45	0.85
20	Clpp	SID152296736	no change with or without drug	0.67	1.52	-0.22	1
21	Hnrnpab	SID152304468	no change with or without drug	-0.67	0.17	-0.67	0.88
22	Trim62	SID152319170	low cell count with doxorubicin only (active)	-2.14	-1.69	-1.12	0.75
23	Inpp1	SID152267893	no change with or without drug	0	0.17	0	0.94
24	Samhd1	SID152323831	no change with or without drug	-0.22	0.17	-0.22	0.92
25	Retreg1	SID152270484	no change with or without drug	-1.57	1.52	-2.36	0.8
26	A230059G12Rik	SID152312435	no change with or without drug	-0.79	-0.51	-0.34	0.87
27	1110004F10Rik	SID152320681	no change with or without drug	-1.12	0.34	-1.24	0.84
28	Mfn2	SID152269763	no change with or without drug	-0.67	-0.51	-0.22	0.88
29	Adam1a	SID152271778	no change with or without drug	0.22	-0.17	0.45	0.96
30	Sec23a	SID152306347	no change with or without drug	0.9	1.01	0.34	1.02
31	Or10g1	SID152337439	no change with or without drug	0.34	-0.51	0.79	0.97
32	H4c9	SID152296100	no change with or without drug	1.12	1.69	0.11	1.04
33	Adprh	SID152336831	no change with or without drug	0.22	-0.17	0.45	0.96
34	Fat4	SID152266167	high cell count without drug only	1.46	2.02	0.22	1.07
35	Fat4	SID152291527	no change with or without drug	-0.9	-1.52	0.22	0.86
36	Oscar	SID152261366	no change with or without drug	-1.8	-1.52	-0.79	0.78
37	Klhl25	SID152298050	no change with or without drug	0.22	-0.17	0.45	0.96
38	Sec11c	SID152329457	high cell count without drug only	1.01	3.37	-0.9	1.03
39	Jak3	SID152299660	no change with or without drug	0.11	-0.67	0.67	0.95
40	Bcl2l11	SID152272483	no change with or without drug	1.24	-0.84	2.14	1.05
41	Gm11961	SID152300478	no change with or without drug	0	1.35	-0.79	0.94
42	Brms1l	SID152314228	no change with or without drug	0.22	0.17	0.22	0.96
43	Spsb3	SID152293747	no change with or without drug	0.79	-0.51	1.35	1.01
44	Ccm2	SID152278231	no change with or without drug	-0.79	0.84	-1.24	0.87
45	Elane	SID152302120	no change with or without drug	0	0.34	-0.11	0.94
46	Fbxo4	SID152316963	no change with or without drug	1.24	0.51	1.01	1.05
47	Fbxo4	SID152342635	low cell count with doxorubicin only (active)	-2.02	-0.84	-1.57	0.76
48	Supt4b	SID152317609	no change with or without drug	0.34	0.51	0.11	0.97
49	Fkbp5	SID152321697	no change with or without drug	-0.45	0	-0.34	0.9
50	Prl7c1	SID152277755	no change with or without drug	0.45	1.01	-0.11	0.98
